Data source: PubChem BioAssay AID1259254 (NCATS, 2017)
Test: 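Genome-wide screen for genes that prevent DNA re-replication in cancer cells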 (primary screen). Cells: human HCT116 colorectal cancer cells. Knock-down reagent: single siRNA against human genes. Duration: 3 days. Read-out: 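Nuclei stained with Hoechst and imaged; cell-cycle phase assigned by DNA content; G2 share scaled per plate, non-targeting siRNA 0%, GMNN siRNA 100%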. Scale: G2 robust z-score and G2 cells, % of GMNN control: higher = more G2 cells, more excess DNA replication; raw share of cells in G2: higher = larger share of cells with G2 DNA content. Hit rule: 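Active siRNAs have a G2 robust z of 5 or more median absolute deviations over the median, which in these data means about 38% or higher of GMNN control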.
The deposit covers about 59,000 reagents; shown is a random part of them. In the full data, about 1,550 (2.6%) are marked active. 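G2 share is only a proxy for re-replication; each gene was hit by three separate siRNAs, and active genes were retested.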 Raw values are not corrected between plates. The numbers tell different reagents against one gene apart. Not given: the amount of reagent.

target gene,reagent no.,G2 robust z-score,"G2 cells, % of GMNN control",raw share of cells in G2 (%),Call
A2M (alpha-2-macroglobulin),1,-0.815,-2.77,2.96,inactive
A2M (alpha-2-macroglobulin),2,-0.514,-0.651,4.5,inactive
A2M (alpha-2-macroglobulin),3,1.53,13.8,9.97,inactive
TRIP12 (thyroid hormone receptor interactor 12),1,-0.247,1.23,5.69,inactive
TRIP12 (thyroid hormone receptor interactor 12),2,3.33,26.4,14.2,inactive
TRIP12 (thyroid hormone receptor interactor 12),3,-0.365,0.399,4.72,inactive
CNTN2 (contactin 2),1,-1.52,-7.71,1.73,inactive
CNTN2 (contactin 2),2,3.35,26.6,13,inactive
CNTN2 (contactin 2),3,-0.991,-4,3.6,inactive
IAPP (islet amyloid polypeptide),1,3.57,28.1,16.4,inactive
IAPP (islet amyloid polypeptide),2,-0.707,-2.01,3.47,inactive
IAPP (islet amyloid polypeptide),3,-0.0863,2.36,5.9,inactive
AGT (angiotensinogen),1,-0.563,-0.991,4.72,inactive
AGT (angiotensinogen),2,0.912,9.39,7.49,inactive
AGT (angiotensinogen),3,6.05,45.6,20.2,active
"LMAN2 (lectin, mannose binding 2)",1,-0.592,-1.2,3.13,inactive
"LMAN2 (lectin, mannose binding 2)",2,0.299,5.07,8.25,inactive
"LMAN2 (lectin, mannose binding 2)",3,-0.15,1.91,4.14,inactive
TLK2 (tousled like kinase 2),1,0.3,5.08,7.17,inactive
TLK2 (tousled like kinase 2),2,-0.447,-0.176,3.63,inactive
TLK2 (tousled like kinase 2),3,3.43,27.1,15.1,inactive
PDCD2 (programmed cell death 2),1,-1.02,-4.24,1.78,inactive
PDCD2 (programmed cell death 2),2,4.06,31.5,19.6,inactive
PDCD2 (programmed cell death 2),3,-0.0279,2.77,4.11,inactive
TIMM8B (translocase of inner mitochondrial membrane 8 homolog B),1,-0.0168,2.85,4.92,inactive
TIMM8B (translocase of inner mitochondrial membrane 8 homolog B),2,-0.403,0.133,4.23,inactive
TIMM8B (translocase of inner mitochondrial membrane 8 homolog B),3,-0.0998,2.27,7.19,inactive
TMEM215 (transmembrane protein 215),1,-0.716,-2.07,3.93,inactive
TMEM215 (transmembrane protein 215),2,4.52,34.8,16.5,inactive
TMEM215 (transmembrane protein 215),3,-0.18,1.7,4.19,inactive
SHOX (SHOX homeobox),1,3.67,28.8,15.4,inactive
SHOX (SHOX homeobox),2,-0.664,-1.7,3.96,inactive
SHOX (SHOX homeobox),3,2.24,18.7,10.1,inactive
CYP4F11 (cytochrome P450 family 4 subfamily F member 11),1,-0.939,-3.64,3.06,inactive
CYP4F11 (cytochrome P450 family 4 subfamily F member 11),2,-1.16,-5.17,3.51,inactive
CYP4F11 (cytochrome P450 family 4 subfamily F member 11),3,3.17,25.3,13.4,inactive
PSG8 (pregnancy specific beta-1-glycoprotein 8),1,5.83,44,20.6,active
PSG8 (pregnancy specific beta-1-glycoprotein 8),2,1.24,11.7,7.85,inactive
PSG8 (pregnancy specific beta-1-glycoprotein 8),3,-0.607,-1.3,2.68,inactive
UBL7 (ubiquitin like 7),1,-0.279,1.01,4.51,inactive
UBL7 (ubiquitin like 7),2,1.8,15.6,7.89,inactive
UBL7 (ubiquitin like 7),3,-0.877,-3.2,1.91,inactive
DNAJB1 (DnaJ heat shock protein family (Hsp40) member B1),1,0.277,4.92,4.89,inactive
DNAJB1 (DnaJ heat shock protein family (Hsp40) member B1),2,-0.67,-1.75,2.77,inactive
DNAJB1 (DnaJ heat shock protein family (Hsp40) member B1),3,0.0401,3.25,6.37,inactive
PRSS50 (serine protease 50),1,0.92,9.44,8.85,inactive
PRSS50 (serine protease 50),2,1.54,13.8,9.78,inactive
PRSS50 (serine protease 50),3,-0.614,-1.35,3.41,inactive

Ordered by “raw share of cells in G2 (%)” (descending): 2 of the entries above.
target gene,reagent no.,G2 robust z-score,"G2 cells, % of GMNN control",raw share of cells in G2 (%),Call
AGT (angiotensinogen),3,6.05,45.6,20.2,active
"LMAN2 (lectin, mannose binding 2)",1,-0.592,-1.2,3.13,inactive
